Assay results from PMC7261184, “Human REXO2 controls short mitochondrial RNAs generated by mtRNA processing and decay machinery to prevent accumulation of double-stranded RNA” (Nucleic Acids Research, 2020).
Results are given in words; binding and its absence hold for the method and conditions named.

Target: REXO2 with alanine substitution of Phe215 and Trp179 (dimerization-deficient variant) (human) (UniProt Q9Y3B8)
Assay: SEC-MALS; gel filtration coupled with multi-angle light scattering; both purified

binding: no binding
B1: REXO2 with alanine substitution of Phe215 and Trp179 (dimerization-deficient variant) (enzyme, UniProt Q9Y3B8 29-237)
chain: GGAAMAAGESMAQRMVWVDLEMTGLDIEKDQIIEMACLITDSDLNILAEGPNLIIKQPDELLDSMSDWCKEHHGKSGLTKAVKESTITLQQAEYEFLSFVRQQTPPGLCPLAGNSVHEDKKFLDKYMPQFMKHLHYRIIDVSTVKELCRRAYPEEYEFAPKKAASHRALDDISESIKELQFYRNNIAKKKIDEKKRKIIENGENEKTVS
